Test results reported in publication PMC10899256.
Results are given in words; binding and its absence hold for the method and conditions named. In cells and extracts the contact can be indirect. Some binding calls cover weakened binding; strength is not graded here. Where a sequence is shown, tags or fusion partners need not be part of it.

Biological target: T1, Flag-LKB1 (full-length LKB1) (human) (UniProt Q15831)
T1 sequence: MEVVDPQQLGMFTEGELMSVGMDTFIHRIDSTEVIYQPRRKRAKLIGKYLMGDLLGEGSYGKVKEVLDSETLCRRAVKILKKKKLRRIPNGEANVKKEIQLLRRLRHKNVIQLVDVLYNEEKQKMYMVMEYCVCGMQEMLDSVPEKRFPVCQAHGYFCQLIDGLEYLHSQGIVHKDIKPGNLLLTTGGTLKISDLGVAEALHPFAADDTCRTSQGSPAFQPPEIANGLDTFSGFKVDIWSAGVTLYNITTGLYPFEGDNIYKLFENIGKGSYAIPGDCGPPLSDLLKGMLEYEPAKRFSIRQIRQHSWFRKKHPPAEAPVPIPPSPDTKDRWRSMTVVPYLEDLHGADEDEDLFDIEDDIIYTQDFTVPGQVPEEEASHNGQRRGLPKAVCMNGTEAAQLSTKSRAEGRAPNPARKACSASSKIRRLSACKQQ
Experiment: co-IP; co-transfected HEK293T; lysate in NETN buffer, anti-Flag Affinity Gel overnight at 4 °C, immunoblot

B1: mCherry-TBC1D23 3K (K632E/K633E/K634E) (protein, UniProt Q9NUY8-2 1-684)
chain: MAEGEDVPPLPTSSGDGWEKDLEEALEAGGCDLETLRNIIQGRPLPADLRAKVWKIALNVAGKGDSLASWDGILDLPEQNTIHKDCLQFIDQLSVPEEKAAELLLDIESVITFYCKSRNIKYSTSLSWIHLLKPLVHLQLPRSDLYNCFYAIMNKYIPRDCSQKGRPFHLFRLLIQYHEPELCSYLDTKKITPDSYALNWLGSLFACYCSTEVTQAIWDGYLQQADPFFIYFLMLIILVNAKEVILTQESDSKEEVIKFLENTPSSLNIEDIEDLFSLAQYYCSKTPASFRKDNHHLFGSTLLGIKDDDADLSQALCLAISVSEILQANQLQGEGVRFFVVDCRPAEQYNAGHLSTAFHLDSDLMLQNPSEFAQSVKSLLEAQKQSIESGSIAGGEHLCFMGSGREEEDMYMNMVLAHFLQKNKEYVSIASGGFMALQQHLADINVDGPENGYGHWIASTSGSRSSINSVDGESPNGSSDRGMKSLVNKMTVALKTKSVNVREKVISFIENTSTPVDRHVSSSDRVGKPYRGVKPVFSIGDEEEYDTDEIDSSSMSDDDRKEVVNIQTWINKPDVKHHFPCKEVKESGHMFPSHLLVTATHMYCLREIVSRKGLAYIQSRQALNSVVKITSEEEHPELITFKYGNSSASGIEILAIERYLIPNAGDATKAIKQQIMKVLDALES
For B1, the binding was “binds weakly”.
